Experimental data: PubChem BioAssay AID1259405 (NCATS, 2018)
This is an unselected part of about 50,000 reagents tested. In the full data, about 4,000 (8%) got an active call. 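Mouse siRNA library applied to hamster cells; one well for each siRNA.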

Test: 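Mouse-designed siRNAs used to find CHO productivity engineering targets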 (primary screen)
Cells: Chinese hamster CHO-K1 ovary cells with stable secreted eGFP expression
Reagent: single siRNA against mouse genes, 0.8 pmol siRNA per well (2 µl of 400 nM stock)
Duration: 3 days
Measurement: 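Percent of the per-plate non-targeting control median for intracellular GFP per well by laser scanning cytometry and for cell viability by ATP luminescence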
Scale: GFP, % of control: higher = more GFP per well, higher productivity; viability (ATP), % of control: higher = more viable cells (more ATP)
Rule for the call: 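a knock-down is called active if GFP reaches 120% or more of non-targeting control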

| target | PubChem SID | GFP, % of control | viability (ATP), % of control | activity call |
| --- | --- | --- | --- | --- |
| Garin5b (GeneID 243822) | SID363542338 | 73.2 | 81 | inactive |
| Garin5b (GeneID 243822) | SID363551829 | 96.2 | 76.6 | inactive |
| Garin5b (GeneID 243822) | SID363559434 | 92 | 103 | inactive |
| Shroom3 (GeneID 27428) | SID363541502 | 59.1 | 63.1 | inactive |
| Shroom3 (GeneID 27428) | SID363556129 | 73.1 | 65.7 | inactive |
| Shroom3 (GeneID 27428) | SID363566418 | 34.2 | 48.3 | inactive |
| Pcdhb10 (GeneID 93881) | SID363541843 | 123 | 67.2 | active |
| Pcdhb10 (GeneID 93881) | SID363553435 | 67.4 | 71.4 | inactive |
| Pcdhb10 (GeneID 93881) | SID363566759 | 65.5 | 82.4 | inactive |
| Or7a36 (GeneID 259074) | SID363554397 | 46.3 | 42 | inactive |
| Or7a36 (GeneID 259074) | SID363567844 | 67.3 | 62.6 | inactive |
| Or7a36 (GeneID 259074) | SID363585201 | 89.3 | 70.4 | inactive |
| Dph5 (GeneID 69740) | SID363570677 | 116 | 88.8 | inactive |
| Dph5 (GeneID 69740) | SID363579477 | 78.7 | 117 | inactive |
| Dph5 (GeneID 69740) | SID363583349 | 106 | 114 | inactive |
| Dnajc16 (GeneID 214063) | SID363541632 | 43.7 | 53.9 | inactive |
| Dnajc16 (GeneID 214063) | SID363553224 | 75.3 | 60.7 | inactive |
| Dnajc16 (GeneID 214063) | SID363566548 | 86.5 | 56.8 | inactive |
| Trpv2 (GeneID 22368) | SID363574821 | 71.9 | 73.6 | inactive |
| Trpv2 (GeneID 22368) | SID363575877 | 50 | 53.6 | inactive |
| Trpv2 (GeneID 22368) | SID363580453 | 83.7 | 85.5 | inactive |
| Inpp5f (GeneID 101490) | SID363575127 | 82.6 | 65.4 | inactive |
| Inpp5f (GeneID 101490) | SID363580759 | 69.5 | 55.5 | inactive |
| Inpp5f (GeneID 101490) | SID363582871 | 65.7 | 92.7 | inactive |
| Ccr3 (GeneID 12771) | SID363571215 | 127 | 90.4 | active |
| Ccr3 (GeneID 12771) | SID363571567 | 87.6 | 62.1 | inactive |
| Ccr3 (GeneID 12771) | SID363571919 | 63.4 | 66.6 | inactive |
| Armc10 (GeneID 67211) | SID363543750 | 73.9 | 33.8 | inactive |
| Armc10 (GeneID 67211) | SID363551486 | 83.1 | 83.5 | inactive |
| Armc10 (GeneID 67211) | SID363559091 | 78.2 | 77.6 | inactive |
| Got1l1 (GeneID 76615) | SID363545159 | 67.6 | 61.6 | inactive |
| Got1l1 (GeneID 76615) | SID363548672 | 70.2 | 89.3 | inactive |
| Got1l1 (GeneID 76615) | SID363562478 | 38.3 | 63.8 | inactive |
| Akr1c6 (GeneID 83702) | SID363575133 | 84.8 | 77.3 | inactive |
| Akr1c6 (GeneID 83702) | SID363580765 | 76.7 | 64.6 | inactive |
| Akr1c6 (GeneID 83702) | SID363582877 | 94.6 | 83.4 | inactive |
| Or8b37 (GeneID 257996) | SID363554616 | 71.4 | 69.3 | inactive |
| Or8b37 (GeneID 257996) | SID363568063 | 61.7 | 49.5 | inactive |
| Or8b37 (GeneID 257996) | SID363586122 | 89.4 | 124 | inactive |
| Psg19 (GeneID 26439) | SID363555313 | 79 | 84.9 | inactive |
| Psg19 (GeneID 26439) | SID363563974 | 65.5 | 56.9 | inactive |
| Psg19 (GeneID 26439) | SID363587520 | 92 | 95.4 | inactive |

Part of the list above, set out differently:
Garin5b (GeneID 243822) [SID363551829] — GFP, % of control: 96.2; viability (ATP), % of control: 76.6; activity call: inactive
Garin5b (GeneID 243822) [SID363559434] — GFP, % of control: 92; viability (ATP), % of control: 103; activity call: inactive
Shroom3 (GeneID 27428) [SID363541502] — GFP, % of control: 59.1; viability (ATP), % of control: 63.1; activity call: inactive
Shroom3 (GeneID 27428) [SID363556129] — GFP, % of control: 73.1; viability (ATP), % of control: 65.7; activity call: inactive
Shroom3 (GeneID 27428) [SID363566418] — GFP, % of control: 34.2; viability (ATP), % of control: 48.3; activity call: inactive

The list goes on:
| target | PubChem SID | GFP, % of control | viability (ATP), % of control | activity call |
| --- | --- | --- | --- | --- |
| Or8h10 (GeneID 258587) | SID363544455 | 67.3 | 56 | inactive |
| Or8h10 (GeneID 258587) | SID363550783 | 89.1 | 76.2 | inactive |
| Or8h10 (GeneID 258587) | SID363557332 | 37.5 | 56 | inactive |
| Sgsh (GeneID 27029) | SID363569350 | 111 | 77.7 | inactive |
| Sgsh (GeneID 27029) | SID363577094 | 50.2 | 50.5 | inactive |
| Sgsh (GeneID 27029) | SID363578502 | 66.7 | 62.2 | inactive |
| Or5an1b (GeneID 258117) | SID363544522 | 70.1 | 86.8 | inactive |
| Or5an1b (GeneID 258117) | SID363550850 | 71 | 78 | inactive |
| Or5an1b (GeneID 258117) | SID363557399 | 60.3 | 63.2 | inactive |
| Mims1 (GeneID 108654) | SID363552336 | 40.3 | 90.6 | inactive |
| Mims1 (GeneID 108654) | SID363585472 | 99.8 | 100 | inactive |
| Mims1 (GeneID 108654) | SID363585823 | 113 | 159 | inactive |
| Glb1l2 (GeneID 244757) | SID363546952 | 66.4 | 68.2 | inactive |
| Glb1l2 (GeneID 244757) | SID363549764 | 64.9 | 86.5 | inactive |
| Glb1l2 (GeneID 244757) | SID363587818 | 139 | 158 | active |
| Rhbg (GeneID 58176) | SID363574833 | 93.5 | 85 | inactive |
| Rhbg (GeneID 58176) | SID363575889 | 54.1 | 68.1 | inactive |
| Rhbg (GeneID 58176) | SID363580465 | 90.8 | 57.5 | inactive |
| Gne (GeneID 50798) | SID363568917 | 59.6 | 53.2 | inactive |
| Gne (GeneID 50798) | SID363576309 | 117 | 90 | inactive |
| Gne (GeneID 50798) | SID363579125 | 60.1 | 43.9 | inactive |
| Npy6r (GeneID 18169) | SID363544176 | 41.4 | 39.7 | inactive |
| Npy6r (GeneID 18169) | SID363550504 | 66.6 | 55.7 | inactive |
| Npy6r (GeneID 18169) | SID363557053 | 43.5 | 19.3 | inactive |
| Creb3l2 (GeneID 208647) | SID363555364 | 20.4 | 16.8 | inactive |
| Creb3l2 (GeneID 208647) | SID363564025 | 54.1 | 45.7 | inactive |
| Creb3l2 (GeneID 208647) | SID363587571 | 99.3 | 95 | inactive |
| Ddx28 (GeneID 71986) | SID363569818 | 110 | 70.9 | inactive |
| Ddx28 (GeneID 71986) | SID363576858 | 76.1 | 55 | inactive |
| Ddx28 (GeneID 71986) | SID363578266 | 92 | 82.3 | inactive |
| Dpy19l1 (GeneID 244745) | SID363540644 | 77.5 | 75.5 | inactive |
| Dpy19l1 (GeneID 244745) | SID363543095 | 78.5 | 99.2 | inactive |
| Dpy19l1 (GeneID 244745) | SID363552588 | 133 | 82.7 | active |
| Bora (GeneID 77744) | SID363552329 | 97.5 | 72.4 | inactive |
| Bora (GeneID 77744) | SID363585465 | 87.3 | 98.6 | inactive |
| Bora (GeneID 77744) | SID363585816 | 129 | 139 | active |
| Psg22 (GeneID 243862) | SID363555194 | 97 | 68.8 | inactive |
| Psg22 (GeneID 243862) | SID363563855 | 57.7 | 55.7 | inactive |
| Psg22 (GeneID 243862) | SID363587401 | 77.8 | 91.3 | inactive |
| Prss21 (GeneID 57256) | SID363574390 | 84.3 | 68.2 | inactive |
| Prss21 (GeneID 57256) | SID363575446 | 77.1 | 51.1 | inactive |
| Prss21 (GeneID 57256) | SID363580022 | 99.7 | 74.4 | inactive |
